Like-named read-outs stand apart in the source and are kept apart here. At least one peptide structure holds a part that was inferred or is arguable (an end, a ring closure or a residue). Some entries share one result that the patent states for a list of compounds.
Key:
SKOV3 cells [1] = conditions: for inhibition of SKOV3, precursor added 12 hours after CP: 72 hours after addition, CP 6 μg/mL, D-10 15 μg/mL or L-10 37 μg/mL; for effect of Z-VAD-FMK on viability of treated SKOV3 cells: 72 hours; for IC50: read-out: IC50, SKOV3 Cells; for IC50 / IC90: 48 hours; for IC90: read-out: IC90, SKOV3 Cells
SKOV3 cells [2] = experiment: LC-MS of cell lysates and culture medium, SKOV3; format: cell-based; conditions: incubation with SKOV3 or A2780cis cells for 4 hours
Experimental: After confirming that CES converts the precursor L-10 or D-10 into the hydrogelator L-12 or D-12, the stability of the precursors (L-10 or D-10) when incubated with the ovarian cancer cells was determined. After culturing the precursors with SKOV3 or A2780cis cells at 37° C. for 4 hours, the cell lysates and culture medium were collected for liquid chromatography-mass spectrometry (LC-MS) analysis and the intracellular concentrations of the precursors, the hydrogelators, and the relevant proteolyzed products were determined. After incubation with SKOV3 or A2780cis cells for 4 hours, more than 85% of the precursors (L-10 or D-10) turned into the corresponding hydrogelators (L-12 or D-12; see Table 1 below).

[3] = system: actin filaments in SKOV3 cells; experiment: Actin filament staining in SKOV3 cells; format: cell-based; conditions: for actin filaments in SKOV3 cells versus untreated cells: 20 hours, D-10 20 μM
A2780cis cells = conditions: for IC50: read-out: IC50, A2780cis Cells; for IC50 / IC90: 48 hours; for IC90: read-out: IC90, A2780cis Cells
HeLa cells = experiment: MTT cell viability, HeLa; format: cell-based
Experimental: D-7 and D-10 (FIG. 12A), the enantiomers of L-7 and L-10, were prepared as described in Example 3. HeLa and SKOV3 cells were used in an MTT assay for assessing cytotoxicity of the peptides against these cancer cell lines.

HS-5 cells = experiment: MTT cell viability, HS-5 stromal cells; conditions: 37 μg/mL, third day
[4] = system: co-cultured HS-5 and SKOV3 cells; experiment: Cell viability of co-cultured HS-5 and SKOV3 cells; format: cell-based; conditions: L-10 73 μg/mL, third day
Experimental: 5×10^3 of SKOV3 cells (or A2780cis) and 5×10^3 HS-5 cells per well were seeded together and co-cultured in DMEM medium. Based on the results in FIG. 22, the concentrations of L-10 and D-10 at 73 and 37 μg/mL, respectively, were chosen. […] The inhibitory activities of L-10 and D-10 towards the co-culture agree well with their cytotoxicity against A2780cis, SKOV3, and H-5 cells. […] For example, on the first day, the cell viabilities of co-cultured HS-5 and SKOV3 cells and co-cultured HS-5 and A2780cis cells treated by D-10 (37 μg/mL) were 79% and 80%, respectively. While on the third day, the cell viabilities dropped to 44% and 57%, respectively. […] Contrary to the case of D-10, the efficacies of L-10 were almost the same between day two and day three (FIG. 25A), which agreed with the lower in vivo stability of L-10 than that of D-10.

With `O=C(CCC(=O)OCCNC(=O)[C@@H](Cc1ccccc1)NC(=O)[C@@H](Cc1ccccc1)NC(=O)Cc1ccc2ccccc2c1)NCCS(=O)(=O)O` [D-10] the “inhibition of SKOV3 by combination with cisplatin” value (SKOV3 cells [1]; 20 μM of cisplatin and 15 μg/mL of D-10) was “over 80%”, the “effect on efficacy of cisplatin in SKOV3” value (SKOV3 cells [1]; 100 μM D-10 with 10, 20 or 50 μM cisplatin, days 1 to 3) was “enhanced the efficacy” and the “inhibition of SKOV3, precursor added 12 hours after CP” value (SKOV3 cells [1]) was “about 80%”. The “effect of Z-VAD-FMK on viability of treated SKOV3 cells” value (SKOV3 cells [1]; D-10 73 μg/mL + Z-VAD-FMK) was “hardly increased the cell viability”, the IC50 (SKOV3 cells [1]) was 48 µM and the IC90 (SKOV3 cells [1]) was 53 µM. For the same compound, the “precursor turned into the corresponding hydrogelator” value (SKOV3 cells [2]) was “more than 85%”, the “actin filaments in SKOV3 cells versus untreated cells” value ([3]; L-10 50 μM) was “far fewer well-defined, long actin filaments” and the “actin filaments 20 hours after replacing with fresh medium” value (“actin filaments 20 hours after replacing” below) ([3]; D-10 100 μM) was “incomplete recovery”. The “actin filaments 20 hours after replacing” value ([3]; D-10 20 and 50 μM, L-10 50 μM) was “recovered”, the “increase of A2780cis cell viability on addition of Z-VAD-FMK” value (A2780cis cells; D-10 37 μg/mL, 72 hours) was 10% and the IC50 (A2780cis cells) was 69 µM. The IC90 (A2780cis cells) was 73 µM, the “activity against HeLa cells” value (HeLa cells; 50 μM, 48 hours, FIG. 12B) was “drastically increased activity against HeLa cells” and the “effectiveness against HeLa cells relative to nanofibers of Nap-FF” value (HeLa cells; intracellularly formed nanofibers) was “about seven times more effective”.

With `O=C(CCC(=O)OCCNC(=O)[C@H](Cc1ccccc1)NC(=O)[C@H](Cc1ccccc1)NC(=O)Cc1ccc2ccccc2c1)NCCS(=O)(=O)O` [L-10] the “inhibition of SKOV3 cells” value (SKOV3 cells [1]; 37 μg/mL, third day) was “innocuous”, the “inhibition of SKOV3, precursor added 12 hours after CP” value (SKOV3 cells [1]) was about 86% and the “effect of Z-VAD-FMK on viability of treated SKOV3 cells” value (SKOV3 cells [1]; L-10 with and without Z-VAD-FMK 45 μM) was “hardly obvious difference”. For the same compound, the IC50 (SKOV3 cells [1]) was 62 µM, the IC90 (SKOV3 cells [1]) was 78 µM and the “HS-5 cells killed / inhibited” value (HS-5 cells) was “innocuous”. For the same compound, the “precursor turned into the corresponding hydrogelator” value (SKOV3 cells [2]) was “more than 85%”, the “actin filaments in SKOV3 cells versus untreated cells” value ([3]; L-10 50 μM) was “fewer well-defined actin filaments” and the “actin filaments 20 hours after replacing” value ([3]; D-10 20 and 50 μM, L-10 50 μM) was “restored to normal”. The “cell death of co-cultured HS-5 and SKOV3 cells” value [4] was “about 60%”, the “inhibition of A2780cis cells” value (A2780cis cells; 37 μg/mL, third day) was “innocuous” and the “effect of Z-VAD-FMK on viability of treated A2780cis cells” value (A2780cis cells; L-10 with and without Z-VAD-FMK 45 μM, 72 hours) was “hardly obvious difference”. For the same compound, the IC50 (A2780cis cells) was 94 µM and the IC90 (A2780cis cells) was 98 µM.

From patent publication US20180037605A1, “SYNTHETIC PEPTIDES AND ENZYMATIC FORMATION OF INTRACELLULAR HYDROGELS” (BRANDEIS UNIVERSITY, priority 2015, published 2018)
